PubChem BioAssay AID493203 (National Center for Advancing Translational Sciences (NCATS), 2011)
Inconclusive means that the source gave no clear call. Such entries were picked first, then a sample of the others. Potencies of inconclusive entries are doubtful fits and often do not repeat. The source made the active and inactive calls. The call rests on the fitted dose curve; in most records, active means well fitted activation curve with a large enough effect; inconclusive means small, poorly fitted or top-dose-only effect; inactive means flat fitted curve, though single readings scatter.

Experiment: qHTS Assay for NPC1 Promoter Activators: Initial hit validation from the primary screen
Settings: Huh7 NPC1 promoter-luciferase reporter, luminescence, 24 h
Source text: NIH Chemical Genomics Center [NCGC] NIH Molecular Libraries Probe Production centers Network [MLPCN] MLPCN Grant: MH089375-01A1 Assay Submitter (PI): Yiannis A. Ioannou NCGC Assay Overview: Niemann Pick Type C (NPC) is a rare neurodegenerative lipidosis that is characterized by lipid storage in the endosomal/lysosomal system. Treatment modalities for this devastating disease are currently non-existent due to the severe obstacles associated with accessing the central nervous system with proteins or genes. The majority of mutations causing NPC disease are missense mutations that are distributed throughout the length of the NPC1 protein, with the most prevalent being the I1061T allele. Although NPC1 mutant proteins may be functional, they are typically trapped in the ER due to misfolding. […] We have developed and optimized a cell based luciferase reporter assay in 1536 well format for the identification of up-regulators of the mutant NPC1 promoter. This assay presents data on the validation of hits from the primary screen.
The NPC1 promoter is cloned in front of the luciferase reporter gene, therefore NPC promoter activation results in luciferase expression. Frozen stock of the NPC1 promoter transfected Huh7 cells were obtained from the laboratory of Dr. Yiannis Ioannou (The Mount Sinai School of Medicine, New York, NY). Cells were propagated and maintained at NCGC in medium containing RPMI-1640 supplemented with 10% FBS, 2mM L-glutamine, and 50ug/ml penicillin/streptomycin. Cells were harvested in and plated for assays in OP-MEM I reduced-serum medium supplemented with 10% FBS. The Amplite luciferase reporter gene assay kit was purchased from ABD Bioquest and prepared/stored according to manufacturers recommendations. qHTS Assay Setup: 1. Dispensed 5ul of Huh7 cells stably expressing NPC1-luciferase at a density of 1500 cells per well 1536-well plates. 2. Incubate cells at 37C, 5% CO2, and 95% humidity for 2 hours. 3. Transferred 23nl per well of compound in DMSO solution. 4. Incubated at 37C, 5% CO2, and 95% humidity for 24 hours. 5. Dispensed 3ul per well of Amplite reagent(ABD Bioquest) per well. 6. Incubate at ambient for 10 minutes. 7. Read using the luminescence protocol on the ViewLux plate reader (Perkin Elmer).
Potency means the concentration at half of the fitted maximal effect.

Potency, inconclusive:
Cc1ccc(S(=O)(=O)/N=C(/Nc2ccccn2)c2ccc(Cl)cc2)cc1 158 µM [activator, partial curve], Cc1cccc(N2CCN(C(=S)c3ccccc3)CC2)c1 250 µM [activator, partial curve, poor fit], Cc1ccc(S(=O)(=O)/N=C2\C=C(Nc3cccc(C(=O)O)c3)C(=O)c3ccccc32)cc1 9.96 µM [activator, partial curve], Cc1ccc(C(=O)c2cncc(Br)c2)cc1 39.7 µM [activator, partial curve], CC(=O)c1c(C)[nH]c(C(=O)Nc2cccc(S(=O)(=O)N(C)C)c2)c1C 62.8 µM [activator, partial curve], COC(=O)Nc1nc2ccc(Br)cc2s1 1.99 µM [activator, full curve], CCc1cc2c(N=Nc3c(O)[nH]c4ccccc34)ncnc2s1 1990 µM [activator, partial curve, poor fit], Cc1ccc(NC(=O)COC(=O)C2C3CC4OC(=O)C2C4C3)cc1Cl (stereo not given) 79.1 µM [activator, partial curve, poor fit], Cc1ccc2nc(NC(=O)CCn3cccc3)sc2c1 49.9 µM [activator, partial curve], CCC(=O)NC(=S)Nc1ccc(N2CCOCC2)cc1 49.9 µM [activator, partial curve], CC1CCc2sc(C(=O)NNC(=S)NC3CC3)cc2C1 (stereo not given) 31.5 µM [activator, partial curve], CC(=O)NC(=S)Nc1ccc2oc(-c3cc(F)c(F)cc3Cl)nc2c1 0.705 µM [activator, full curve], O=C(CCCn1c(=O)oc2ccccc21)N1CCN(c2ccccn2)CC1 125 µM [activator, partial curve, poor fit], Cc1ccc(NC(=O)c2c(O)c3ccccc3n(C)c2=O)nc1 79.1 µM [activator, partial curve], CC(C)(C)C(=O)NC(=S)Nc1ccccc1F 49.9 µM [activator, partial curve], COC(=O)c1ccccc1NC(=O)c1cc(-c2cccs2)on1 1250 µM [activator, partial curve, poor fit], O=C(NC(=S)Nc1ccc(CN2CCCCC2)cc1)c1cc2ccccc2o1 397 µM [activator, partial curve, poor fit], CCC1=[N+](CC(=O)c2ccc(C)cc2)CCn2cccc21 2.5 µM [activator, full curve], COc1ccc([N+](=O)[O-])cc1COc1ccc2c(-c3ccccc3)cc(=O)oc2c1 1250 µM [activator, partial curve], COc1ccc(C(=O)OCC(=O)N2CCCC2=O)c(OC)c1 158 µM [activator, partial curve, poor fit], O=C(CSc1nnc(-c2csc3c2CCCC3)o1)Nc1ccccc1 2.5 µM [activator, partial curve], COCC1CCN(C(=O)c2ccc3oc(Cc4ccccc4)nc3c2)C1 (stereo not given) 99.6 µM [activator, partial curve]

Potency, inactive:
O=C(N/N=C/c1ccc(-c2ccc(Br)cc2)o1)c1ccc2c(c1)OCO2, Cc1ccccc1NC(=O)CSc1ccc(-c2cccnc2)nn1, CCC(=O)N1c2ccccc2NC2=C(C(=O)CCC2)C1c1ccc(N(C)C)cc1 (stereo not given), Cc1ccccc1NC(=O)Cc1nc(COC(=O)CC(C)c2ccccc2)cs1 (stereo not given), COc1ccc(-n2c(N)c(C(=O)NCc3ccco3)sc2=S)cc1, NNC(=O)c1cccc(S(=O)(=O)Nc2cc(Cl)ccc2Cl)c1, CCCNC(=O)C1CCN(S(=O)(=O)c2ccc3[nH]c(=O)ccc3c2)CC1, O=C(C[N+]1(CC#Cc2ccccc2)CCCCC1)c1ccccc1, CCCOP(=O)(c1ccc(N(C)C)cc1)C(O)c1cccnc1 (stereo not given)

Potency, active:
O=C(CCN1C(=O)c2ccccc2C1=O)Nc1ccc(-c2nc3ccccc3s2)cc1 0.25 µM, O=C(CSc1nnc(-c2ccccn2)o1)Nc1ccccc1Cl 1.25 µM, N#C/C(=N\Nc1ccc(Cl)cc1)C(=N)N1CCCCC1 0.281 µM, O=C(COC(=O)c1ccc(-c2nnc(-c3ccccc3)o2)cc1)c1ccccc1 0.396 µM, Nc1ccc(C(=O)Nc2ccccc2N)cc1 15.8 µM, Cc1nc(-c2ccccn2)sc1C(=O)Nc1ccc(F)cc1F 15.8 µM, CCC(=O)Nc1cc(-c2cc3ccccc3oc2=O)ccc1OC 1.12 µM, Cc1ccc(N=Cc2sc(O)c3ccccc23)c(C)c1 1.77 µM, O=C(CSc1nnc(-c2ccccc2)o1)Nc1ccccc1F 0.25 µM
